From publication PMC10992996
These are yes or no findings as the source states them, for the method shown. In cells and extracts the contact can be indirect. A yes stands for co-enrichment or nearness to the bait. Other partners may have been found.

The chains behind the UniProt entries cited, without tags or fusion partners. Residues count along the entry.
UniProt Q5IJ48, residues 29-1285: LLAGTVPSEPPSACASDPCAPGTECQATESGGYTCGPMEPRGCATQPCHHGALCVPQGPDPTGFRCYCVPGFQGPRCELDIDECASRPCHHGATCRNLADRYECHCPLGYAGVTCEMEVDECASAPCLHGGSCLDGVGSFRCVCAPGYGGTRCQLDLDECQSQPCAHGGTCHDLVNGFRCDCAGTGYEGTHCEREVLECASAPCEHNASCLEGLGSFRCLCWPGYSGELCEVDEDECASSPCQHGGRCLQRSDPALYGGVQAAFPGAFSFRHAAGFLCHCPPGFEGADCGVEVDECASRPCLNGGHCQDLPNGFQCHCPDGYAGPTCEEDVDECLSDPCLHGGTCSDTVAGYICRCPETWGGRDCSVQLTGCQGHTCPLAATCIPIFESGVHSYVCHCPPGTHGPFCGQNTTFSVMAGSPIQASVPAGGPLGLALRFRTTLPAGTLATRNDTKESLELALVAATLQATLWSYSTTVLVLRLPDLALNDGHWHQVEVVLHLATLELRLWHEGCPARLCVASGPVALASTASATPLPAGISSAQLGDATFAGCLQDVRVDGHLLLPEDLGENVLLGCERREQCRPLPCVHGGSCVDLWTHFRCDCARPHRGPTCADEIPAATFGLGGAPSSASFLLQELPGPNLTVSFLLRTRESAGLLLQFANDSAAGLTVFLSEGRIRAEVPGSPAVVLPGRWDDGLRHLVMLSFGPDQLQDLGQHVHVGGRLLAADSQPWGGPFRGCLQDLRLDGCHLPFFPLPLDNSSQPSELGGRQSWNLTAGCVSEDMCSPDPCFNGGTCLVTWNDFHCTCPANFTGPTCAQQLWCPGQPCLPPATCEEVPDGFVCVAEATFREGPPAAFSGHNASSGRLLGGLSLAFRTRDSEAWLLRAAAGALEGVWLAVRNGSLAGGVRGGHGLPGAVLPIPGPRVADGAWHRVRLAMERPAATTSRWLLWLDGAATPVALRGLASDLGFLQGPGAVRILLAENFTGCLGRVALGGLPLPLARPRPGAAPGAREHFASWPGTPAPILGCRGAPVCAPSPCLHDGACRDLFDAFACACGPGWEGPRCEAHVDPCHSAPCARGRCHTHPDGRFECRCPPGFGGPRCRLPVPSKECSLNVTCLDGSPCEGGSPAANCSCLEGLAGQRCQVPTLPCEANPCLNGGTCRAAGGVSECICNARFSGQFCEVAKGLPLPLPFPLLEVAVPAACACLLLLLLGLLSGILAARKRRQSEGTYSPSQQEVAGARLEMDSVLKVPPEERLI
UniProt Q04721, residues 26-2471: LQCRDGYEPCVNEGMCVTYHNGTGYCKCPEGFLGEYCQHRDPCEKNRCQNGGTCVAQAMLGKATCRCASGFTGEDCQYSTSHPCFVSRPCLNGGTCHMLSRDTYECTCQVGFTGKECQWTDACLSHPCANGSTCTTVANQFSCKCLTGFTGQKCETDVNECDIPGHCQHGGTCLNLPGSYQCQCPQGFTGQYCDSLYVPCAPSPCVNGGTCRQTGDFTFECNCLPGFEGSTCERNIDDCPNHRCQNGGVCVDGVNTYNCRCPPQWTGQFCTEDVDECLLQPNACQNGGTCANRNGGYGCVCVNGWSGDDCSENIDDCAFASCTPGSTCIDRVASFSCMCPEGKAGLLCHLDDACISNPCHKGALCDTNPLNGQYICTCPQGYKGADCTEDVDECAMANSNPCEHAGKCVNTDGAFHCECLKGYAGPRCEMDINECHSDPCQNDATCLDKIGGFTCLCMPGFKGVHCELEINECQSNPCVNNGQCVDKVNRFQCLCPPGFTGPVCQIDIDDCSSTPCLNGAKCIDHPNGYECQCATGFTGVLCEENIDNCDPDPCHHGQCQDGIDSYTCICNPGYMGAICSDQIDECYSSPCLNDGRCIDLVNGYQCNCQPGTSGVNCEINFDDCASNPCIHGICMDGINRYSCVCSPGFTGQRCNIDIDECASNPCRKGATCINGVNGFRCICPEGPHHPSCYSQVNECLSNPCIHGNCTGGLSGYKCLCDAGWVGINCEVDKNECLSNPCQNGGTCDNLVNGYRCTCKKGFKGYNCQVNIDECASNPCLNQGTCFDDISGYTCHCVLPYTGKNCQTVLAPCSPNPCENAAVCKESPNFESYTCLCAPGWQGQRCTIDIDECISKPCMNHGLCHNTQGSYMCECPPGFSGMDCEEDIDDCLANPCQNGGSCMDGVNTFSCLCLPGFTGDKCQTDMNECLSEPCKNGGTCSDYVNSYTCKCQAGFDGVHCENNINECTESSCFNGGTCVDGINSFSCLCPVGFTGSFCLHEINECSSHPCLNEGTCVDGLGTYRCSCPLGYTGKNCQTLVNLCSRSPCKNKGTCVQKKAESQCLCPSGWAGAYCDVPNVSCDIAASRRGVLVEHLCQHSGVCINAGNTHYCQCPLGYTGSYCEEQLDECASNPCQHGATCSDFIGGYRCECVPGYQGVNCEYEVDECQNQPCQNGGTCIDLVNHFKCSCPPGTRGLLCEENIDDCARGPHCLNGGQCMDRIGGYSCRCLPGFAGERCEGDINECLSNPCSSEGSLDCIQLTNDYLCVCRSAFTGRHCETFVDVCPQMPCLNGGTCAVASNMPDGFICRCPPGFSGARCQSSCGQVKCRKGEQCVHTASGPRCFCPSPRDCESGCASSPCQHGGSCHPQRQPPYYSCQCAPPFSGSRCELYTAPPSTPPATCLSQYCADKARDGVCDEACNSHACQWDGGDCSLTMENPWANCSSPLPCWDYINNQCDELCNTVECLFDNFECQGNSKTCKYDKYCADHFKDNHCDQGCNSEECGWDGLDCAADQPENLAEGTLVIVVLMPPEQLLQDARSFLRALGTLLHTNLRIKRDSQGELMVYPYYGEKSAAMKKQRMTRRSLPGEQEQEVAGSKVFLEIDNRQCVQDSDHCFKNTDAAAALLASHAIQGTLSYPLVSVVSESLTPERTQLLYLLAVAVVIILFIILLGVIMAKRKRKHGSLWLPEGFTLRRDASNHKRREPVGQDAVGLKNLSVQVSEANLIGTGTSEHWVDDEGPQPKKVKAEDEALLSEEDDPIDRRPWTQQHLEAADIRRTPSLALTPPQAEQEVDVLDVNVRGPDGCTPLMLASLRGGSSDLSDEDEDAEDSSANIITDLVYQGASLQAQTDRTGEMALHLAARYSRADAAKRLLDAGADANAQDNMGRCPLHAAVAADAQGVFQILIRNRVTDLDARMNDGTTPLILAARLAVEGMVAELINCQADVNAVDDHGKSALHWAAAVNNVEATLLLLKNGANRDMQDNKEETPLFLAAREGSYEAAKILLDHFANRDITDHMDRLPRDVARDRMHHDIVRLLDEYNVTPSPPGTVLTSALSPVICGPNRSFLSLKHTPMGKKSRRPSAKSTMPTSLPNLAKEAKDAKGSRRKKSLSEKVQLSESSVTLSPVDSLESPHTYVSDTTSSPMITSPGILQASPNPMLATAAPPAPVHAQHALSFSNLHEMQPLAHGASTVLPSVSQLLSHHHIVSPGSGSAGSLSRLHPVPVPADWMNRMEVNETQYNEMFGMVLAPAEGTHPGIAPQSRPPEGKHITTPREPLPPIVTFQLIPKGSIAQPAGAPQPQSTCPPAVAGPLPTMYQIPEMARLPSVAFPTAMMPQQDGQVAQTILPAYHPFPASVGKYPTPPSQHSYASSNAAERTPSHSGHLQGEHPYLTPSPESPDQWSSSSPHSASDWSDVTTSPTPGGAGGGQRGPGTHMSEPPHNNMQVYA
UniProt Q8N4L2: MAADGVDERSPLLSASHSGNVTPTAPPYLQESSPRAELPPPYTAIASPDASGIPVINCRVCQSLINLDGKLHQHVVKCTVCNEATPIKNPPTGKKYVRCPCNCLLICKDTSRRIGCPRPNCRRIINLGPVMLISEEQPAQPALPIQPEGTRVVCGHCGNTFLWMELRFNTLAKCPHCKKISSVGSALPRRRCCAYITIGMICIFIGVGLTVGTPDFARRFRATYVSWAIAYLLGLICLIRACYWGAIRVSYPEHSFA
UniProt Q86T03: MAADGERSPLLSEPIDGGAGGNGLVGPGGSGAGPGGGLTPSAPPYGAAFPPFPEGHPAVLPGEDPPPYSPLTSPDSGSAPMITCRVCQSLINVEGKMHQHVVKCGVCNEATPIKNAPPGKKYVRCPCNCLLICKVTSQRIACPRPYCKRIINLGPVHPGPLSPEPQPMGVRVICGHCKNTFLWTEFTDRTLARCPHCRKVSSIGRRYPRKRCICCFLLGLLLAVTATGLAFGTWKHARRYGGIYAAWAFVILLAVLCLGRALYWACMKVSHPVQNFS

Assays:
[1] = target: Human canonical CRB2 (Crumbs homolog 2) (human) (UniProt Q5IJ48); assay: affinity purification with mass spectrometry; CRB2-FLAG (GFP-FLAG as control) from HEK293T lysate on FLAG beads, washed with 0.01% SDS in TBS, incubated with lysis buffer without porcine retina lysate, FLAG peptide elution, LC-MS/MS, N = 6; interactors derive from HEK293T cells
[2] = target: Human canonical CRB2 (Crumbs homolog 2) (human) (UniProt Q5IJ48); assay: affinity purification with mass spectrometry; CRB2-FLAG (GFP-FLAG as control) held on FLAG beads, washed and purified with 0.01% SDS, incubated with 4 mg porcine neural retina lysate 90 min at 4°C, FLAG peptide elution, LC-MS/MS, N = 6; only the target purified

binding [1]	binding [2]	Substance
binds	–	NOTCH2 (from UniProt Q04721 26-2471) (receptor)
binds	binds	TMEM55A (PIP4P2) (from UniProt Q8N4L2 1-257) (enzyme)
binds	binds	TMEM55B (PIP4P1) (from UniProt Q86T03 1-277) (enzyme)
